The values that follow come from PMC10340229, “EpoR Activation Stimulates Erythroid Precursor Proliferation by Inducing Phosphorylation of Tyrosine-88 of the CDK-Inhibitor p27^Kip1” (Cells, 2023).

By UniProt entry, the sequences of proteins in these tests, tags left out. Where a name states a change or a piece, a line headed by the entry shows the natural chain unless it says otherwise.
UniProt P46527: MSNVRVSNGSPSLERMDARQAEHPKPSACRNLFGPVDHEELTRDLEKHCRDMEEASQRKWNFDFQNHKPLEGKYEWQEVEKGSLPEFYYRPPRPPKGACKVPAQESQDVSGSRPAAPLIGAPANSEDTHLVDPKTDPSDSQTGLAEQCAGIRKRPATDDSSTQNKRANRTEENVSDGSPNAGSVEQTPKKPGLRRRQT

No constants are given. Whether binding was seen depends on the method and setting. For part of these data: Binding seen in cells or lysates may run through a third protein. Some results given as binding are weak or reduced against the parent protein; the word gives no strength. Sequences can lack the tags named with a protein.

Experiment [1] deals with T1, GST–hIC EpoR (273–508aa), cytoplasmic domain of human EpoR (human) (UniProt P19235).
T1 sequence: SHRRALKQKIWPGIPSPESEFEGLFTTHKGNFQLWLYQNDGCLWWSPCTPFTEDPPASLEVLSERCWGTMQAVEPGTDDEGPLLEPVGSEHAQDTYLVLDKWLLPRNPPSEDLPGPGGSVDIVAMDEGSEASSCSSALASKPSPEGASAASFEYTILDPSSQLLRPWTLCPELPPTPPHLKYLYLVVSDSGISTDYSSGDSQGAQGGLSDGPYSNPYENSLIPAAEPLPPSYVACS
Kind of experiment: pull-down; GST fusion proteins bound on glutathione Sepharose beads incubated for 2 h at 4 °C with purified bacterial p27, p27 mutants or p27 fragments; extensive washing; bound p27 detected by Western blot; both purified. Background: A western blot detects proteins with antibodies after separation by electrophoresis.

Experiment [2] has as its target T1, GST–hIC EpoR (273–508aa), cytoplasmic domain of human EpoR (human). The experiment is described as follows: pull-down; unpublished data: 'under these conditions' (bacterial recombinant proteins), Y88–phosphorylated p27 with EpoR; both purified.
Experiment [3] addresses Flag–tagged p27 (p27^Kip1, CDKN1B) (human) (UniProt P46527). Kind of experiment: co-IP; HEK–293T cells co-transfected with Flag–p27, HA–EpoR and/or untagged Jak2 for 48 h; lysis in 50 mM HEPES pH 7.5, 150 mM NaCl, 1% Triton; anti–Flag M2 Affinity Gel 90 min at 4 °C in 0.5% Triton; Western blot.

Take “His–tagged p27 C–terminus (amino acids 97–198) (from UniProt P46527 97-198) (domain or fragment)”: the binding result in experiment [1] is “no binding”. On to “Y88–phosphorylated p27 (from UniProt P46527 1-198)”, for which, in experiment [2], the binding entry is “binds”.

B1: HA–tagged EpoR (erythropoietin receptor) (receptor, UniProt P19235 25-508)
chain: APPPNLPDPKFESKAALLAARGPEELLCFTERLEDLVCFWEEAASAGVGPGNYSFSYQLEDEPWKLCRLHQAPTARGAVRFWCSLPTADTSSFVPLELRVTAASGAPRYHRVIHINEVVLLDAPVGLVARLADESGHVVLRWLPPPETPMTSHIRYEVDVSAGNGAGSVQRVEILEGRTECVLSNLRGRTRYTFAVRARMAEPSFGGFWSAWSEPVSLLTPSDLDPLILTLSLILVVILVLLTVLALLSHRRALKQKIWPGIPSPESEFEGLFTTHKGNFQLWLYQNDGCLWWSPCTPFTEDPPASLEVLSERCWGTMQAVEPGTDDEGPLLEPVGSEHAQDTYLVLDKWLLPRNPPSEDLPGPGGSVDIVAMDEGSEASSCSSALASKPSPEGASAASFEYTILDPSSQLLRPWTLCPELPPTPPHLKYLYLVVSDSGISTDYSSGDSQGAQGGLSDGPYSNPYENSLIPAAEPLPPSYVACS
Consider B1, for which the binding result in experiment [3] is “binds”.
